Consider 28 compounds from the supplement of paper PMC4604168 (melanoma cell lines).

The other results are listed elsewhere or left out. Many values rest on one well or one pass, so single values are uncertain.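 The apoptosis fraction was the count of cleaved-PARP antibody-stained nuclei relative to all DNA-stained nuclei, imaged in 1,536-well plates. Screening doses were set so most cells survived, and baseline and induced cleaved-PARP levels vary greatly across cell lines.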

This assay has as its system LOXIMVI. Put plainly: cleaved PARP positive nuclei fraction relative to DMSO control; melanoma cells; higher = more apoptosis. The conditions noted are these: library dose: low library concentration; 72 h.
As to `CS(=O)(=O)c1ccc(C(=O)Nc2ccc(Cl)c(-c3ccccn3)c2)c(Cl)c1` [vismodegib] + OCc1c[nH]c2ccccc12 [Indole-3-carbinol] (first compound 1 µM, partner dose 0.8 µM), the “cleaved PARP positive nuclei fraction” value stood at 84.3%.

As to `COc1ccc(C2=N[C@@H](c3ccc(Cl)cc3)[C@@H](c3ccc(Cl)cc3)N2C(=O)N2CCNC(=O)C2)c(OC(C)C)c1` [Nutlin-3] + NC1(c2ccc(-c3nc4ccn5c(=O)[nH]nc5c4cc3-c3ccccc3)cc2)CCC1 [MK2206] (first compound 0.1 µM, partner dose 0.4 µM), the “cleaved PARP positive nuclei fraction” value is 61.6%.

Take `COc1ccc(C2=N[C@@H](c3ccc(Cl)cc3)[C@@H](c3ccc(Cl)cc3)N2C(=O)N2CCNC(=O)C2)c(OC(C)C)c1` [Nutlin-3] + Clc1ccc(Nc2nnc(Cc3ccncc3)c3ccccc23)cc1 [vatalanib] (first compound 0.1 µM, partner dose 2 µM): the “cleaved PARP positive nuclei fraction” value is 111%.

Consider `Cn1sc(=O)n(Cc2ccccc2)c1=O` + CN(c1ncccc1CNc1nc(Nc2ccc3c(c2)CC(=O)N3)ncc1C(F)(F)F)S(C)(=O)=O [PF562271] (first compound 0.4 µM, partner dose 0.08 µM), for which the “cleaved PARP positive nuclei fraction” value stood at 185%.

`Cn1cnc2c(F)c(Nc3ccc(Br)cc3Cl)c(C(=O)NOCCO)cc21` [selumetinib] + CNC(=O)c1cc(Oc2ccc(NC(=O)Nc3ccc(Cl)c(C(F)(F)F)c3)cc2)ccn1 [sorafenib] (first compound 0.015 µM, partner dose 0.4 µM): the “cleaved PARP positive nuclei fraction” value stood at 93.8%.

As to `NC1(c2ccc(-c3nc4ccn5c(=O)[nH]nc5c4cc3-c3ccccc3)cc2)CCC1` + CCCS(=O)(=O)Nc1ccc(F)c(C(=O)c2c[nH]c3ncc(Cl)cc23)c1F [PLX4720] (first compound 0.4 µM, partner dose 0.08 µM), the “cleaved PARP positive nuclei fraction” value was 60.9%.

As for `NC(=O)c1ccc(N(C(N)=O)c2c(F)cccc2F)nc1-c1ccc(F)cc1F` + C#Cc1cccc(Nc2ncnc3cc(OCCOC)c(OCCOC)cc23)c1 [erlotinib] (first compound 0.4 µM, partner dose 0.8 µM), the “cleaved PARP positive nuclei fraction” value came out at 253%.

With `C[C@@H](N)c1ccc(C(=O)Nc2ccnc3[nH]ccc23)cc1` + Cn1sc(=O)n(Cc2ccccc2)c1=O [TDZD-8] (first compound 0.4 µM, partner dose 0.4 µM), the “cleaved PARP positive nuclei fraction” value was determined as 74.6%.

In the case of `CS(=O)(=O)c1ccc(C(=O)Nc2ccc(Cl)c(-c3ccccn3)c2)c(Cl)c1` [vismodegib] + CCCCCCCCc1ccc(CCC(N)(CO)CO)cc1 [fingolimod] (first compound 1 µM, partner dose 2 µM), the “cleaved PARP positive nuclei fraction” value is 250%.

Turning to `Cn1cnc2c(F)c(Nc3ccc(Br)cc3Cl)c(C(=O)NOCCO)cc21` [selumetinib] + C#Cc1cccc(Nc2ncnc3cc(OCCOC)c(OCCOC)cc23)c1 [erlotinib] (first compound 0.015 µM, partner dose 0.8 µM), the “cleaved PARP positive nuclei fraction” value came out at 56.9%.

For `CC1(C)CCC(c2ccc(Cl)cc2)=C(CN2CCN(c3ccc(C(=O)NS(=O)(=O)c4ccc(N[C@H](CCN5CCOCC5)CSc5ccccc5)c(S(=O)(=O)C(F)(F)F)c4)cc3)CC2)C1` + CS(=O)(=O)CCNCc1ccc(-c2ccc3ncnc(Nc4ccc(OCc5cccc(F)c5)c(Cl)c4)c3c2)o1 [lapatinib] (first compound 0.4 µM, partner dose 0.8 µM), the “cleaved PARP positive nuclei fraction” value was determined as 209%.

As for `CC1(C)CCC(c2ccc(Cl)cc2)=C(CN2CCN(c3ccc(C(=O)NS(=O)(=O)c4ccc(N[C@H](CCN5CCOCC5)CSc5ccccc5)c(S(=O)(=O)C(F)(F)F)c4)cc3)CC2)C1` + O=C(O)[C@@H]1[O][Sb](=[O])([O][Sb]2(=[O])[O][C@H]([C@H](O)CO)[C@H](O)[C@H](C(=O)O)[O]2)[O][C@H]([C@H](O)CO)[C@@H]1O [stibogluconate] (first compound 0.4 µM, partner dose 2 µM), the “cleaved PARP positive nuclei fraction” value came out at 414%.

With `CC1(C)CCC(c2ccc(Cl)cc2)=C(CN2CCN(c3ccc(C(=O)NS(=O)(=O)c4ccc(N[C@H](CCN5CCOCC5)CSc5ccccc5)c(S(=O)(=O)C(F)(F)F)c4)cc3)CC2)C1` + Nc1ccn([C@@H]2O[C@H](CO)[C@@H](O)C2(F)F)c(=O)n1 [gemcitabine] (first compound 0.4 µM, partner dose 0.0004 µM), the “cleaved PARP positive nuclei fraction” value came to 258%.

For `C[C@]1(O)C[C@@H](c2nc(-c3ccc4ccc(-c5ccccc5)nc4c3)c3c(N)nccn32)C1` + CC(=O)O[C@@]12CO[C@@H]1C[C@H](O)[C@@]1(C)C(=O)[C@H](O)C3=C(C)[C@@H](OC(=O)[C@H](O)[C@@H](NC(=O)OC(C)(C)C)c4ccccc4)C[C@@](O)([C@@H](OC(=O)c4ccccc4)[C@H]21)C3(C)C [Docetaxel] (first compound 0.4 µM, partner dose 0.0001 µM), the “cleaved PARP positive nuclei fraction” value is 145%.

Take `CC1(C)CCC(c2ccc(Cl)cc2)=C(CN2CCN(c3ccc(C(=O)NS(=O)(=O)c4ccc(N[C@H](CCN5CCOCC5)CSc5ccccc5)c(S(=O)(=O)C(F)(F)F)c4)cc3)CC2)C1` + Cn1sc(=O)n(Cc2ccccc2)c1=O [TDZD-8] (first compound 0.4 µM, partner dose 0.4 µM): the “cleaved PARP positive nuclei fraction” value came out at 151%.

As for `C[C@]1(O)C[C@@H](c2nc(-c3ccc4ccc(-c5ccccc5)nc4c3)c3c(N)nccn32)C1` + OCc1c[nH]c2ccccc12 [Indole-3-carbinol] (first compound 0.4 µM, partner dose 0.8 µM), the “cleaved PARP positive nuclei fraction” value was determined as 272%.

Take `CN(c1ncccc1CNc1nc(Nc2ccc3c(c2)CC(=O)N3)ncc1C(F)(F)F)S(C)(=O)=O` + C[C@]1(c2nc3c(C(N)=O)cccc3[nH]2)CCCN1 [Veliparib] (first compound 0.08 µM, partner dose 1.4 µM): the “cleaved PARP positive nuclei fraction” value turned out to be 120%.

For the compound `C[C@]1(O)C[C@@H](c2nc(-c3ccc4ccc(-c5ccccc5)nc4c3)c3c(N)nccn32)C1` + CCCS(=O)(=O)Nc1ccc(F)c(C(=O)c2c[nH]c3ncc(Cl)cc23)c1F [PLX4720] (first compound 0.4 µM, partner dose 0.08 µM), the “cleaved PARP positive nuclei fraction” value was 81.2%.

`CN(c1ncccc1CNc1nc(Nc2ccc3c(c2)CC(=O)N3)ncc1C(F)(F)F)S(C)(=O)=O` + Cn1c(=O)n(-c2ccc(C(C)(C)C#N)cc2)c2c3cc(-c4cnc5ccccc5c4)ccc3ncc21 [NVP-BEZ235] (first compound 0.08 µM, partner dose 0.004 µM): the “cleaved PARP positive nuclei fraction” value turned out to be 187%.

As for `NC(=O)c1ccc(N(C(N)=O)c2c(F)cccc2F)nc1-c1ccc(F)cc1F` + CC(=O)c1c(C)c2cnc(Nc3ccc(N4CCNCC4)cn3)nc2n(C2CCCC2)c1=O [palbociclib] (first compound 0.4 µM, partner dose 0.04 µM), the “cleaved PARP positive nuclei fraction” value was found to be 327%.

On to `CN(c1ncccc1CNc1nc(Nc2ccc3c(c2)CC(=O)N3)ncc1C(F)(F)F)S(C)(=O)=O` + CCCS(=O)(=O)Nc1ccc(F)c(C(=O)c2c[nH]c3ncc(Cl)cc23)c1F [PLX4720] (first compound 0.08 µM, partner dose 0.08 µM), for which the “cleaved PARP positive nuclei fraction” value was determined as 134%.

Turning to `CCCCCCCCc1ccc(CCC(N)(CO)CO)cc1` [fingolimod] + Nc1nc(F)nc2c1ncn2[C@@H]1O[C@H](CO)[C@@H](O)[C@@H]1O [fludarabine] (first compound 2 µM, partner dose 0.2 µM), the “cleaved PARP positive nuclei fraction” value came to 123%.

Take `CCCCCCCCc1ccc(CCC(N)(CO)CO)cc1` [fingolimod] + CC(=O)c1c(C)c2cnc(Nc3ccc(N4CCNCC4)cn3)nc2n(C2CCCC2)c1=O [palbociclib] (first compound 2 µM, partner dose 0.04 µM): the “cleaved PARP positive nuclei fraction” value worked out at 120%.

Turning to `CC(=O)O[C@@]12CO[C@@H]1C[C@H](O)[C@@]1(C)C(=O)[C@H](O)C3=C(C)[C@@H](OC(=O)[C@H](O)[C@@H](NC(=O)OC(C)(C)C)c4ccccc4)C[C@@](O)([C@@H](OC(=O)c4ccccc4)[C@H]21)C3(C)C` [Docetaxel] + Cc1cc(Nc2cc(N3CCN(C)CC3)nc(/C=C/c3ccccc3)n2)n[nH]1 [ENMD2076] (first compound 0.0001 µM, partner dose 0.04 µM), the “cleaved PARP positive nuclei fraction” value came to 240%.

For `CC1(C)CCC(c2ccc(Cl)cc2)=C(CN2CCN(c3ccc(C(=O)NS(=O)(=O)c4ccc(N[C@H](CCN5CCOCC5)CSc5ccccc5)c(S(=O)(=O)C(F)(F)F)c4)cc3)CC2)C1` + CCCS(=O)(=O)Nc1ccc(F)c(C(=O)c2c[nH]c3ncc(Cl)cc23)c1F [PLX4720] (first compound 0.4 µM, partner dose 0.08 µM), the “cleaved PARP positive nuclei fraction” value worked out at 1080%.

Turning to `CC(=O)O[C@@]12CO[C@@H]1C[C@H](O)[C@@]1(C)C(=O)[C@H](O)C3=C(C)[C@@H](OC(=O)[C@H](O)[C@@H](NC(=O)OC(C)(C)C)c4ccccc4)C[C@@](O)([C@@H](OC(=O)c4ccccc4)[C@H]21)C3(C)C` [Docetaxel] + Cn1c(Nc2ccc(C(F)(F)F)cc2)nc2cc(Oc3ccnc(-c4ncc(C(F)(F)F)[nH]4)c3)ccc21 [CHIR265] (first compound 0.0001 µM, partner dose 0.08 µM), the “cleaved PARP positive nuclei fraction” value stood at 73.7%.

With `Cn1sc(=O)n(Cc2ccccc2)c1=O` + CC(C)C[C@H](NC(=O)[C@H](Cc1ccccc1)NC(=O)c1cnccn1)B(O)O [Bortezomib] (first compound 0.4 µM, partner dose 0.001 µM), the “cleaved PARP positive nuclei fraction” value is 150%.

For `COc1ccc(C2=N[C@@H](c3ccc(Cl)cc3)[C@@H](c3ccc(Cl)cc3)N2C(=O)N2CCNC(=O)C2)c(OC(C)C)c1` [Nutlin-3] + C=CCNC1=C2C[C@@H](C)C[C@H](OC)[C@H](O)[C@@H](C)/C=C(\C)[C@H](OC(N)=O)[C@@H](OC)/C=C\C=C(/C)C(=O)NC(=CC1=O)C2=O [Tanespimycin] (first compound 0.1 µM, partner dose 0.002 µM), the “cleaved PARP positive nuclei fraction” value is 95%.
